# Record: PubChem BioAssay AID1224826 (NIAID, 2016)
# Test: 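Regulators of Tlr4 signalling leading to Tnf-alpha expression in macrophages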 (primary screen)
# Cells: RAW264.7 G9 macrophages from mouse bearing reporters for p65 (GFP) and the Tnf promoter (mCherry)
# Reagent: siRNA pool against mouse genes, 100 nM
# Time to read-out: 16 h of LPS stimulation, after 2 days of siRNA transfection
# Treatment: bacterial lipopolysaccharide (Salmonella minnesota R595), 10 ng/ml
# Measurement: 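Nuclear mCherry signal of the Tnf promoter reporter measured by imaging after background removal, scaled to each plate median and turned into robust z-scores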
# Scale: Tnf reporter robust z-score: higher = stronger Tnf promoter reporter signal after LPS; Tnf reporter intensity: higher = stronger Tnf promoter reporter signal
# Rule for the call: 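Called active when robust z-score is at most -1.3, matching the median of the Tlr4 knock-down control, or over 3; control wells and wells with under 50 cells never active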
# Meaning of the calls: active = Tnf reporter clearly lowered or raised; inactive = no clear change in Tnf reporter
# The whole screen tested about 17,000 reagents; shown is a part drawn at random. About 1,110 of all reagents (6.6%) count as active. 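Active means lowered or raised reporter signal; replicate intensities are raw and not normalised per plate.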 Reagent sequences are not shown.
The first 3 records, ahead of the listing:
gene,Tnf reporter robust z-score,fewer than 50 cells in well,"Tnf reporter intensity, replicate 1","Tnf reporter intensity, replicate 2",Outcome
Rogdi (rogdi homolog),-0.13,enough cells in well,182,25,inactive
Wee2 (WEE1 homolog 2 (S. pombe)),-0.16,enough cells in well,101,154,inactive
Aprt (adenine phosphoribosyl transferase),-1.45,enough cells in well,84.2,88.7,active

Main list, from the first entry:
gene,Tnf reporter robust z-score,fewer than 50 cells in well,"Tnf reporter intensity, replicate 1","Tnf reporter intensity, replicate 2",Outcome
Rogdi (rogdi homolog),-0.13,enough cells in well,182,25,inactive
Wee2 (WEE1 homolog 2 (S. pombe)),-0.16,enough cells in well,101,154,inactive
Aprt (adenine phosphoribosyl transferase),-1.45,enough cells in well,84.2,88.7,active
"Dnaaf1 (dynein, axonemal assembly factor 1)",-1.17,enough cells in well,155,30.1,inactive
"Cacnb1 (calcium channel, voltage-dependent, beta 1 subunit)",0.05,enough cells in well,179,164,inactive
Nceh1 (neutral cholesterol ester hydrolase 1),-0.73,enough cells in well,123,103,inactive
Fbxl3 (F-box and leucine-rich repeat protein 3),-0.33,enough cells in well,216,190,inactive
F8a (factor 8-associated gene A),1.43,enough cells in well,160,340,inactive
"Zgrf1 (zinc finger, GRF-type containing 1)",1.02,enough cells in well,276,52.5,inactive
"Psmg3 (proteasome (prosome, macropain) assembly chaperone 3)",2.01,enough cells in well,248,109,inactive
Or4d2b (olfactory receptor family 4 subfamily D member 2B),,fewer than 50 cells per well; well left out of calls,6.2,171,inactive
"Ank1 (ankyrin 1, erythroid)",,fewer than 50 cells per well; well left out of calls,99.1,114,inactive
Gfi1 (growth factor independent 1 transcription repressor),-0.36,enough cells in well,259,177,inactive
Xrn1 (5'-3' exoribonuclease 1),,fewer than 50 cells per well; well left out of calls,87.8,78.2,inactive
Ccdc39 (coiled-coil domain containing 39),-0.96,enough cells in well,115,99.3,inactive
Ncoa1 (nuclear receptor coactivator 1),-0.23,enough cells in well,238,194,inactive
Fkbp1b (FK506 binding protein 1b),-0.08,enough cells in well,189,167,inactive
Hoxa5 (homeobox A5),0.51,enough cells in well,257,214,inactive
Hectd2 (HECT domain E3 ubiquitin protein ligase 2),-0.82,enough cells in well,192,110,inactive
Trim45 (tripartite motif-containing 45),,fewer than 50 cells per well; well left out of calls,68.9,83.5,inactive
Wap (whey acidic protein),0.7,enough cells in well,174,88.5,inactive
Cetn3 (centrin 3),-1.41,enough cells in well,127,111,active
Cript (cysteine-rich PDZ-binding protein),,fewer than 50 cells per well; well left out of calls,119,37.7,inactive
Bag1 (BCL2-associated athanogene 1),-0.38,enough cells in well,153,104,inactive
